Patent US9574173
These are yes or no findings as the source states them, for the method shown. Some binding calls cover weakened binding; strength is not graded here.

T1: nuclear factor of activated T-cells (NFAT1) (human), Q13469
T1 chain: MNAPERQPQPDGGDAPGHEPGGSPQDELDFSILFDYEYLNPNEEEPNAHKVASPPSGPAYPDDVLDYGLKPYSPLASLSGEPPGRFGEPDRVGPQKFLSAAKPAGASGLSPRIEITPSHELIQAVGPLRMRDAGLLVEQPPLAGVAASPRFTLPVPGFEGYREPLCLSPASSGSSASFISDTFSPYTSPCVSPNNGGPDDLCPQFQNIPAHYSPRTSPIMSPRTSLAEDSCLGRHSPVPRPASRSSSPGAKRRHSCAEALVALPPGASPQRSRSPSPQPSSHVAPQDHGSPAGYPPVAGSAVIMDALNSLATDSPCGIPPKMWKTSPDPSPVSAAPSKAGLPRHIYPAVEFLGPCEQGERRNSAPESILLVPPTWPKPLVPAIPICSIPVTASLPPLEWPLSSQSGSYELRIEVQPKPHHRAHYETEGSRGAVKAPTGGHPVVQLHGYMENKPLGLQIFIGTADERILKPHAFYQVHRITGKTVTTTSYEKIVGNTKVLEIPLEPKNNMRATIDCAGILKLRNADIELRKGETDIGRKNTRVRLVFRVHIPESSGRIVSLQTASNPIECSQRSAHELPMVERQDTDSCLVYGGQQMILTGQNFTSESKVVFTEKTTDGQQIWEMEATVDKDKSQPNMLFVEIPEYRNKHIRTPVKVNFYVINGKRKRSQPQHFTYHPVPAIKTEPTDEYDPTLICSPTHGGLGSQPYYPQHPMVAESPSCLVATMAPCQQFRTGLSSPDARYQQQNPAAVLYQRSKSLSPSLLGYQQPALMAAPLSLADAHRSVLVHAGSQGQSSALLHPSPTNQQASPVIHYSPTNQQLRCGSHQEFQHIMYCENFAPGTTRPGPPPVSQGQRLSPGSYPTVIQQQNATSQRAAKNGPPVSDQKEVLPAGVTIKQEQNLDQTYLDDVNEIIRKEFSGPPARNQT

T2: myocyte enhancer factor 2A (MEF2A) (human), Q02078
T2 chain: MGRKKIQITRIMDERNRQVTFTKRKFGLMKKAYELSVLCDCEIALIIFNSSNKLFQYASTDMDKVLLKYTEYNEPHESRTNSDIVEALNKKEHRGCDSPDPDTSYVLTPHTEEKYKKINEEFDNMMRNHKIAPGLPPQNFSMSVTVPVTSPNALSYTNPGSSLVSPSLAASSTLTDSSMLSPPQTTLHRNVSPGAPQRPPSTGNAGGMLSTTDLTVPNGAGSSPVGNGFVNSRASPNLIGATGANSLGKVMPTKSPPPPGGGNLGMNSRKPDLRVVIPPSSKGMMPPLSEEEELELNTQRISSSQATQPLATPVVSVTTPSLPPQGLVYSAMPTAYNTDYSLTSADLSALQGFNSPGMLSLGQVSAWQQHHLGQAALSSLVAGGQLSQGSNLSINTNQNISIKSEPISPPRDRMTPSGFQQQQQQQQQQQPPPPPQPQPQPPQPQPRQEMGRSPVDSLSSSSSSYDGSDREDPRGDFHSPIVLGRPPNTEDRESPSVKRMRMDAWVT

B1: myocyte enhancer factor 2A (MEF2A), Q02078 1-507 (protein, human, UniProt Q02078 1-507, looked up)
chain: T2 chain
B2: nuclear factor of activated T-cells (NFAT1), Q13469 1-925 (protein, human, UniProt Q13469 1-925, looked up)
chain: T1 chain

Legend:
[1] = target: T1, nuclear factor of activated T-cells …; experiment: immunoprecipitation and Western blot, RA-treated hTS cells (FIG. 22c); settings: remark: other sources report otherwise
[2] = target: T2, myocyte enhancer factor 2A (MEF2A) …; experiment: as above; settings: remark: other sources report otherwise

Row | Binder | binding [1] | binding [2]
1 | B1 | binds | 
2 | B2 |  | binds
